Assay results published in PMC7941204.
Construct, isoform or probe ends are uncertain for at least one entry. At least one verdict was read from the data and is not stated in words by the source.

Chains of the proteins cited; added tags and fusions are not shown. Chains listed by the source or under a name are the forms on record and can include a tag or linker.
RAD-51 + RFS-1 (of RFS-1/RIP-1) + RIP-1-3xFLAG-ybbr(A647), one chain, as listed by the source, chain 1 of 3: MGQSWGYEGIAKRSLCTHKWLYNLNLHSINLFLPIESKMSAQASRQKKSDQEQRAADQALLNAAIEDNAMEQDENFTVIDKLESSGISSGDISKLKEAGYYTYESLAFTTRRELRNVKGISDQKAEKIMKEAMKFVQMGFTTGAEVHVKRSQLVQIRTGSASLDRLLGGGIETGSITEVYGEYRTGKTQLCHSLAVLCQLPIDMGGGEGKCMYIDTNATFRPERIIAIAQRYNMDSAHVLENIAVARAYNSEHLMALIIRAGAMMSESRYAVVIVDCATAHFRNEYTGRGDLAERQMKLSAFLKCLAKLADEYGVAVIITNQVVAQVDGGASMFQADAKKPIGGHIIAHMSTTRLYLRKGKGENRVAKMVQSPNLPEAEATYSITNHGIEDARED

Tests used:
Experiment in all cases: EMSA
[1] = system: RAD-51 + RFS-1 (of RFS-1/RIP-1) + RIP-1-3xFLAG-ybbr(A647); conditions: 2 mM ATP, binding of RFS-1/RIP-1(A647) to RAD-51 filament, EMSA 49-mer: 35 mM Tris-HCl pH 7.5, 50 mM KCl, 1 mM DTT, 2 mM MgCl2, 2 mM ATP, 25 C, EMSA 60-mer: 20 mM Tris-HCl pH 7.5, 8% glycerol, 50 mM Na acetate, recombinant protein, label: 5'-Cy5 or 5'-FAM versions listed in Table S1, single-stranded DNA
[2] = system: RAD-51f (6-FAM-labelled RAD-51) (Caenorhabditis elegans); conditions: 2 mM ATP, 2 mM Mg2+, WT level of DNA binding, EMSA 49-mer: 35 mM Tris-HCl pH 7.5, 50 mM KCl, 1 mM DTT, 2 mM MgCl2, 2 mM ATP, 25 C, EMSA 60-mer: 20 mM Tris-HCl pH 7.5, 8% glycerol, 50 mM Na acetate, recombinant protein, protein details: 6-FAM (succinimidyl ester), SUMO fusion vector, label: 5'-Cy5 or 5'-FAM versions listed in Table S1, single-stranded DNA
[3] = system: RAD-51 (Caenorhabditis elegans); conditions: 2 mM ATP, 2 mM Mg2+, EMSA 49-mer: 35 mM Tris-HCl pH 7.5, 50 mM KCl, 1 mM DTT, 2 mM MgCl2, 2 mM ATP, 25 C, EMSA 60-mer: 20 mM Tris-HCl pH 7.5, 8% glycerol, 50 mM Na acetate, recombinant protein, protein details: SUMO fusion vector (pET-SUMO), label: 5'-Cy5 or 5'-FAM versions listed in Table S1, single-stranded DNA

Measured: binding result

AGCTACCATGCCTGCACGAATTAAGCAATTCGTAATCATGGTCATAGCT [49-mer]
binds: all assays above
